In all, about 320,000 compounds went through this assay and about 22,000 (6.9%) were called active. The inconclusive results got no clear call from the source; some entries with a clear call stand among them for comparison. The call rests on the fitted dose curve; in most records, active means well fitted inhibition curve with a large enough effect; inconclusive means small, poorly fitted or top-dose-only effect, or another doubt; inactive means no such curve, though single readings can be large or run the other way. Potencies beside an inconclusive call are fits to weak or partial responses and may not hold up. Where a structure was tested more than once in an assay, its records may differ in their call.
assay: Primary qHTS for delayed death inhibitors of the malarial parasite plastid, 96 hour incubation; conditions: P. falciparum luciferase reporter growth; series mostly up to 28.7 µM; activity change, negative = inhibition: at the top concentration
In short: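 Erythrocytes infected with luciferase-expressing P. falciparum were dispensed at 2% hematocrit and 0.05% parasitemia (final), then incubated with compounds 96 hours at 37 C in 5% CO2. Luminescence after detection reagent addition reported growth.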
On the % scale 0 is the no-effect control and ±100 the full control effect; potency means the concentration at half of the fitted maximal effect.

Compound	Potency	activity change, negative = inhibition
CN(CC(=O)N1CCN(c2ccccc2)CC1)S(=O)(=O)c1cccs1	inconclusive: 2.08 µM [inhibitor, partial curve, poor fit]	
Cc1ccc2nc(SCc3nnc(-c4cccs4)o3)[nH]c2c1	inconclusive: 8.28 µM [inhibitor, partial curve]	
Cc1cccc(N2CCN(C(=S)Nc3ccc4nc5n(c(=O)c4c3)CCCCC5)CC2)c1C	inconclusive: 18.5 µM [inhibitor, single point]	
CCC[N+]12CCC(CC1)C(C(O)(c1ccccc1)c1ccccc1)C2 (configuration not stated)	active: 5.22 µM	
O=C(O)CN1C(=O)COc2ccc(S(=O)(=O)N3CCCCCC3)cc21	inconclusive: 18.5 µM [inhibitor, single point]	
Cc1ccc(OCc2cc(C(=O)NC3CCCCC3)no2)cn1	active: 13.1 µM	
O=C(CNC(=O)c1ccc(F)cc1)N/N=C/c1ccc(O)c([N+](=O)[O-])c1	inconclusive: 4.65 µM [inhibitor, partial curve, poor fit]	
CN(C)S(=O)(=O)c1cccc(NC(=S)Nc2cc(Cl)cc(Cl)c2)c1	inconclusive: 18.5 µM [inhibitor, single point]	
Cc1cccc(NC(=O)c2cccc(S(=O)(=O)NCc3ccccc3)c2)n1		inactive: 0%
Cc1ccsc1CNC12CC3CC(CC(C3)C1)C2	active: 0.828 µM	
COCCNC(=O)c1ccccc1NC(=O)CCSc1ccccc1	inconclusive: 11.7 µM [inhibitor, single point]	
CCCn1c(SCC(=O)Nc2cccc(S(=O)(=O)N(C)C)c2)nc2ccccc2c1=O	inconclusive: 14.7 µM [inhibitor, partial curve, poor fit]	
CCCC(C)NC(=O)Cc1ccccc1 (configuration not stated)	inconclusive: 2.33 µM [inhibitor, partial curve, poor fit]	
CC(C)(C)OC(=O)NCCCCCc1nnc(SCC(=O)Nc2cccc(Cl)c2)o1	inconclusive: 10.4 µM [inhibitor, single point]	
c1ccc(Cn2nnc3c(N4CCOCC4)ncnc32)cc1	inconclusive: 9.28 µM [inhibitor, partial curve]	
O=C(C[n+]1cccc(C(=O)Nc2ccccc2)c1)c1ccc([N+](=O)[O-])cc1		inactive: -1.99%
CCCCCn1c(=O)c(C(=O)NCc2ccco2)c(O)c2ccccc21	inconclusive: 13.1 µM [inhibitor, single point]	
O=C1C=C2C=CC3C[C@@]2(O1)C1CCCCN31 (some centres not stated)	active: 2.69 µM	
CCOc1ccccc1NC(=O)COc1coc(CN2CCCc3ccccc32)cc1=O	inconclusive: 6.57 µM [inhibitor, partial curve]	
O=C(NN=C1CCCCCCC1)c1ccc2ccccc2n1	inconclusive: 0.329 µM [inhibitor, partial curve, poor fit]	
CCOC(=O)c1c(CSc2nc(C)cc(C)c2C#N)n(C)c2cc(Br)c(OC(C)=O)cc12	inconclusive: 1.85 µM [inhibitor, single point]	
COc1ccc(/C=N\NC(=O)c2ccc(-c3ccccc3)cc2)cc1COC(C)=O	inconclusive: 18.5 µM [inhibitor, single point]	
COc1cccc(NC2c3ccccc3C(=O)N2Cc2ccco2)c1 (configuration not stated)	inconclusive: 2.62 µM [inhibitor, full curve]	
Cc1ccc(S(=O)(=O)NC2CC2)s1	inconclusive: 16.5 µM [inhibitor, partial curve, poor fit]	

Compound	Potency	activity change, negative = inhibition
COc1ccc(S(=O)(=O)NNC(=O)Nc2ccc(F)cc2F)c(OC)c1		inactive: -17.1%
CCOc1ccc(C(=O)NC(=S)Nc2cccnc2)cc1		inactive: 1.88%
C#CCn1c(=NC(=O)CN2C(=O)CCC2=O)sc2cc(S(N)(=O)=O)ccc21		inactive: -0.96%
CCOc1ccc(S(=O)(=O)N2CCC(C(=O)NCc3ccccn3)CC2)cc1Cl		inactive: -3.21%
Cn1c(=O)c2c(nc(N3CCOCC3)n2C/C=C/c2ccccc2)n(C)c1=O	inconclusive: 14.7 µM [inhibitor, partial curve]	
CC(=O)c1ccc(N2CCN(C(=O)C3CCC3)CC2)cc1		inactive: 9.15%
C=C(C)c1cccc(C(C)(C)NC(=O)NC(c2ccccc2)c2ccc(OC)cc2)c1 (configuration not stated)	active: 11.7 µM	
COc1ccccc1NC(=O)C1=C(C)Nc2nc(-c3cccs3)nn2C1c1cccnc1 (configuration not stated)	inconclusive: 10.4 µM [inhibitor, single point]	
CC(C)CCNC(=O)C(c1cccnc1)N(CCc1ccccc1)C(=O)Cn1nnc2ccccc21 (configuration not stated)	inconclusive: 18.5 µM [inhibitor, single point]	
CCCCOc1ccc(Cl)cc1CSc1n[nH]c(C)n1	inconclusive: 9.28 µM [inhibitor, single point]	
O=C(c1ccc(COc2ccccc2Cl)o1)N1CCOCC1		inactive: -19.9%
O=C1/C(=C/c2ccco2)CCc2ccccc21	inconclusive: 18.5 µM [inhibitor, single point]	
CCOC(=O)CC(=O)CSc1nc(CC)c(C)cc1C#N	inconclusive: 18.5 µM [inhibitor, single point]	
CCOC(=O)COc1ccc(S(=O)(=O)N2CCN(c3ccc(F)cc3)CC2)cc1	inconclusive: 18.5 µM [inhibitor, single point]	
CCc1c(C)[nH]c2ccc(OC)cc2c1=S	inconclusive: 13.1 µM [inhibitor, single point]	
CCc1noc(C)c1C(=O)Nc1nc(-c2ccc(Cl)cc2Cl)c(C)s1	inconclusive: 18.5 µM [inhibitor, single point]	
CC(C)(C)C(=O)Nc1ccccc1-c1nc2ccccc2[nH]c1=O		inactive: 38.1%
CCCC(=O)NCCc1nc2ccccc2n1C	inconclusive: 0.37 µM [inhibitor, full curve]	
O=C1C(=O)N(CCCN2CCOCC2)C(c2cccs2)/C1=C(/O)c1ccc2c(c1)OCO2 (configuration not stated)	inconclusive: 9.28 µM [inhibitor, partial curve, poor fit]	
CCOc1ccccc1C(=O)N(Cc1cccs1)C1CCS(=O)(=O)C1 (configuration not stated)		inactive: 15.7%
CCc1ccc2[nH]c3nc(N/N=C/c4cccc(O)c4)nnc3c2c1	inconclusive: 10.4 µM [inhibitor, partial curve, poor fit]	
CCOC(=O)C1CCCN(C(=O)c2ccc(C(=O)c3ccccc3)cc2)C1 (configuration not stated)		inactive: -6.57%
Cc1sc2ccccc2c1CC1=NCCN1	active: 8.49 µM	
COc1cccc(-c2ccc3ncnc(NCc4cccc(C)c4)c3c2)c1	active: 3.7 µM	

Compound	Potency	activity change, negative = inhibition
Cc1ccc(S(=O)(=O)N2c3ccccc3NC(=O)C2CC(=O)Nc2ccccc2)cc1 (configuration not stated)	active: 11.7 µM	
Cc1ccc(NC2CCCN(C(=O)c3cccnc3)C2)cc1C (configuration not stated)	inconclusive: 18.5 µM [inhibitor, single point]	
Cc1ccc(S(=O)(=O)NC2CCCCCCC2)cc1	active: 8.28 µM	
Cc1cc(-c2ccccc2)c(C#N)c(N)n1		inactive: -6.19%
CCOC(=O)C1=NOC(COc2ccccc2C=O)C1 (configuration not stated)	inconclusive: 11.7 µM [inhibitor, single point]	
C/C(=N/NS(=O)(=O)c1cc(C)ccc1C)c1ccc2c(c1)OCO2	active: 11.7 µM	
CCOC(=O)c1cc(-c2ccc(OC(F)F)cc2)nc2c1c(=O)[nH]c(=O)n2C		inactive: 18.5%
CCn1c(CNc2nc3ccccc3n2C(C)C)nc2ccccc21	active: 11.7 µM	
CCN(CC(=O)Nc1ccc(NC(C)=O)cc1)C(=O)c1cc(-c2ccccc2)nn1-c1ccccc1	inconclusive: 11.7 µM [inhibitor, partial curve, poor fit]	
COc1ccc(N2CCN(Cc3nc4c(c(=O)n(C)c(=O)n4C)n3C(C)C(C)=O)CC2)cc1 (configuration not stated)	inconclusive: 3.29 µM [inhibitor, full curve, poor fit]	
COc1ccc2oc(-c3ccc(C)c(NC(=O)c4ccc(N5CCOCC5)c([N+](=O)[O-])c4)c3)nc2c1	inconclusive: 8.28 µM [inhibitor, partial curve, poor fit]	
C/C(=N/NC(=O)Cc1cccn1C)c1ccccc1		inactive: 27.6%
CCOC(=O)c1ccc(Nc2ncnc3ccc(C)cc23)cc1		inactive: -5.8%
O=S(=O)(Nc1ccccc1)c1ccc(-c2csnn2)cc1		inactive: 35.2%
CCCNC(=O)C(Cc1cccc(OC)c1)NC(=O)c1ccc(C(C)(C)C)cc1 (configuration not stated)	inconclusive: 18.5 µM [inhibitor, single point]	
O=C(Nc1cccc(S(=O)(=O)N2CCCCC2)c1)c1cc([N+](=O)[O-])ccc1N1CCOCC1	inconclusive: 11.7 µM [inhibitor, single point]	
Cc1ccnc(NS(=O)(=O)c2ccc(NC(=O)Cc3ccccc3)cc2)n1		inactive: -0.0102%
CCN1CCN(C(=O)c2cn(CCOC)c(=O)c3c2c2ccccc2n3C)CC1	inconclusive: 18.5 µM [inhibitor, single point]	
CC(C)[C@H](NC(=O)C1CC(=O)N(c2ccc3c(c2)OCO3)C1)C(=O)NC1CCCC1 (some centres not stated)		inactive: 22.4%
CCN(CC)C(=O)COc1coc(CN2CCN(c3cccc(Cl)c3)CC2)cc1=O	active: 8.28 µM	
Cc1cc(-c2ccccc2)nn1-c1nc2c(c(=O)[nH]c(=O)n2C)n1C	inconclusive: 0.233 µM [inhibitor, full curve, poor fit]	
Cc1c(Cl)c([N+](=O)[O-])nn1CC(=O)NCc1ccco1	active: 1.47 µM	
COc1ccccc1C(CNC(=O)c1cccc(S(=O)(=O)Nc2ccc(C)cc2)c1)N1CCCC1 (configuration not stated)	active: 14.7 µM	
COc1ccc(/C(C)=N\NC(=O)c2ccc(-c3ccccc3)cc2)c(F)c1	active: 10.4 µM	

Part of the list above in order of number of heavy atoms, falling:
Compound	Potency	activity change, negative = inhibition
CCOC(=O)COc1ccc(S(=O)(=O)N2CCN(c3ccc(F)cc3)CC2)cc1	inconclusive: 18.5 µM [inhibitor, single point]	
C#CCn1c(=NC(=O)CN2C(=O)CCC2=O)sc2cc(S(N)(=O)=O)ccc21		inactive: -0.96%
CCCC(C)NC(=O)Cc1ccccc1 (configuration not stated)	inconclusive: 2.33 µM [inhibitor, partial curve, poor fit]	
